From US20080026067A1, “Method for Increasing Specific Surface Area of Slightly Soluble Drug” (priority 2004, published 2008)

Test: Comparison of the filtration time
Conditions: suction filtration, Kiriyama funnel, filter paper diameter 40 mm
Protocol: The filtration time in process of Adjustment Example 3 and 4 was measured. However, filtration was performed by on like-for-like basis of suction filtration using Kiriyama funnel and filter paper having its diameter 40 mm. As a result, the filtration time of Adjustment Example 3 (specific surface area of the powder of compound A is 19.6 m^2/g) was about 16 minutes than the time of Adjustment Example 4 (specific surface area of the powder of compound A is 12.51 m^2/g) was about 2.8 minutes.

**Q.** For `Cc1ccc(-c2nc(CCOc3cccc4c3CCC=C4CCC(=O)O)c(C)o2)cc1` [Adjustment Example 3, 3-(5-{2-[5-methyl-2-(4-methylphenyl)-1,3-oxazol-4-yl]ethoxy}-3,4-dihydronaphthalen-1-yl)propanoic acid], which filtration time is on record?
**A.** Its filtration time is “about 16 minutes”.

**Q.** For `Cc1ccc(-c2nc(CCOc3cccc4c3CCC=C4CCC(=O)O)c(C)o2)cc1` [Adjustment Example 4, 3-(5-{2-[5-methyl-2-(4-methylphenyl)-1,3-oxazol-4-yl]ethoxy}-3,4-dihydronaphthalen-1-yl)propanoic acid], which filtration time is on record?
**A.** The filtration time was “about 2.8 minutes”.
